# Measured values reported in PubChem BioAssay AID2551 (National Center for Advancing Translational Sciences (NCATS), 2010).
# By UniProt entry, the sequences of proteins in these tests, tags left out. Where a name states a change or a piece, a line headed by the entry shows the natural chain unless it says otherwise.
# UniProt P51450: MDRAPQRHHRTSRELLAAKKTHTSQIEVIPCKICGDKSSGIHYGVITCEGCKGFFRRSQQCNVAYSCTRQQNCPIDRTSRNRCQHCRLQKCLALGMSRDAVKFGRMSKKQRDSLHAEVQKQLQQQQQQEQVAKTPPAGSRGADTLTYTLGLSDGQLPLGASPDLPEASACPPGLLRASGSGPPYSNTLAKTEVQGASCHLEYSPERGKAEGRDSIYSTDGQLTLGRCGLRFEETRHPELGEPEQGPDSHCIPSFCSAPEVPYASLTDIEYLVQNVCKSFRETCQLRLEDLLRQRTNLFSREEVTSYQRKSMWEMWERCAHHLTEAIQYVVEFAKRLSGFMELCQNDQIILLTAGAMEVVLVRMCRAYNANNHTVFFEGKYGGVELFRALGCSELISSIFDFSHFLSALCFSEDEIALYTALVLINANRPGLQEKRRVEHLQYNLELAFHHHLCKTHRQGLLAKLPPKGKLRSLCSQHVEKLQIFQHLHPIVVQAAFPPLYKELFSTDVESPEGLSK
# Hit rate of the full screen: of about 310,000 compounds, about 17,000 (5.5%) were called active. The shares of active, inactive and inconclusive entries below differ from those in the screen. Calls come from the whole dose curve; as a rule, active = well fitted inhibition curve with a large enough effect; inconclusive = small, poorly fitted or top-dose-only effect, or effect the other way; inactive = no such curve, though single readings can be large or run the other way. Where the call is inconclusive, the potency comes from a doubtful curve fit.
# Biological target: Nuclear receptor ROR-gamma (Mus musculus) (UniProt P51450)
# Experiment: qHTS for inhibitors of ROR gamma transcriptional activity; note: nearly all actives have a fitted effect of over 60% in size
# Conditions: Drosophila S2 Gal4-RORgamma UAS-luciferase reporter, 20 h; activity change, negative = inhibition: at 53.6 µM (top of the series)
# Procedure, shortened: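 Stable Schneider cell line, Gal4 DNA-binding domain fused to ROR gamma, UAS-luciferase. Cmpd 1 hr RT → CuSO4 700 uM final → 20 hr RT → luciferase reagent 10 min → luminescence.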
# % is set by controls: 0 for no effect and ±100 for the full control effect; potency is the fitted concentration of half-maximal effect.
SMILES,Potency,"activity change, negative = inhibition"
CC(=O)NCCN1C(=O)S/C(=C\c2cccs2)C1=O,"inconclusive: 12.6 µM [activator, single point]",–
CCOC(=O)c1snc(C(=O)NC2CCCCC2)c1N,"inconclusive: 1.41 µM [activator, partial curve]",–
CCNC(=S)NNC(=O)Cn1nc(C)cc1C,active: 10 µM,–
Cc1cc(C)c(CSc2ncc(-c3ccc([N+](=O)[O-])cc3)[nH]2)c(C)c1,active: 10 µM,–
CC1=NN(C(=O)CCCc2ccccc2)C(O)(C(F)(F)F)C1 (stereo not given),active: 4.47 µM,–
CC1CC(C)CN(C(=S)NC2CCCCC2)C1 (stereo not given),"inconclusive: 22.4 µM [inhibitor, single point]",–
COc1ccc(CCNC(=O)c2cccs2)cc1OC,–,inactive: 20.6%
O=C(COC(=O)c1c2c(nc3ccccc13)CCCCC2)c1ccc(Cl)s1,"inconclusive: 12.6 µM [activator, partial curve]",–
Cc1ccc2nc(SCc3cn4cccnc4n3)[nH]c2c1,"inconclusive: 10 µM [activator, partial curve]",–
CCC1Oc2ccc(C)cc2N(CC(=O)N(Cc2ccc(C)o2)C2CC(C)(C)NC(C)(C)C2)C1=O (stereo not given),"inconclusive: 0.005 µM [inhibitor, full curve, poor fit]",–
Cc1nnc(C)n1/N=C/c1ccccc1,–,inactive: -10%
C=CCc1c(C)[nH]c2ccc(C)cc2c1=O,"inconclusive: 11.2 µM [activator, partial curve]",–
COc1ccc(N2C(=O)/C(=C/c3ccc([N+](=O)[O-])cc3)N=C2C)c(OC)c1,"inconclusive: 0.708 µM [activator, full curve, poor fit]",–
COc1cc(N/N=C(\C)c2ccc(N)cc2)nc(-c2ccccc2)n1,"inconclusive: 12.6 µM [activator, single point]",–
CCN(CC)c1ccc(/C=c2\sc3nc4ccccc4n3c2=O)c(O)c1,–,inactive: -2.73%
C/C(=N\Nc1ccc([N+](=O)[O-])cc1)c1ccc(-n2nncc2C)cc1,"inconclusive: 11.2 µM [activator, single point]",–
COc1ccc(Nc2nc(-c3ccccc3)nc3ccccc23)cc1S(=O)(=O)N1CCOCC1,"inconclusive: 12.6 µM [activator, single point]",–
COc1ccc(C(=O)NCc2nnc(SCC(=O)Nc3cc(C)cc(C)c3)o2)cc1OC,–,inactive: 10.5%
Cc1ccccc1N=Nc1c(N)n[nH]c1N,"inconclusive: 14.1 µM [inhibitor, partial curve, poor fit]",–
COc1ncnc2sc3c(c12)CCCC3,–,inactive: -11.1%
c1ccc(-c2noc(-c3cccc4ccccc34)n2)nc1,"inconclusive: 12.6 µM [inhibitor, single point]",–
COc1ccc2c(c1)OCc1c-2oc2cc(OC)ccc12,–,inactive: 17.1%
Cc1onc(-c2ccccc2Cl)c1C(=O)N/N=C(\N)COc1ccc(Cl)cc1,active: 0.447 µM,–
O=C(NCCc1cccs1)C12CN(Cc3ccccc3)CC1C(c1cccc([N+](=O)[O-])c1)=NO2 (stereo not given),"inconclusive: 35.5 µM [inhibitor, single point]",–
CCCn1c(C2CCCN2c2nc(-c3ccc(C)cc3)cs2)nc2cc(Cl)c(N3CCCCC3)cc21 (stereo not given),active: 10 µM,–

# Copied from the list:
# Entry for CC1=NN(C(=O)CCCc2ccccc2)C(O)(C(F)(F)F)C1 (stereo not given) under Potency: active: 4.47 µM
# Entry for CC(=O)NCCN1C(=O)S/C(=C\c2cccs2)C1=O under Potency: inconclusive: 12.6 µM [activator, single point]
# Entry for CCC1Oc2ccc(C)cc2N(CC(=O)N(Cc2ccc(C)o2)C2CC(C)(C)NC(C)(C)C2)C1=O (stereo not given) under Potency: inconclusive: 0.005 µM [inhibitor, full curve, poor fit]

# Following part:

SMILES,Potency,"activity change, negative = inhibition"
CCOCCCNS(=O)(=O)c1ccc(NC(=O)c2ccc([N+](=O)[O-])cc2Cl)cc1,"inconclusive: 11.2 µM [activator, partial curve]",–
COc1ccc(C)cc1NC(=O)CSc1nnc(-c2cc3cccc(OC)c3o2)n1N,"inconclusive: 22.4 µM [inhibitor, single point]",–
COc1ccc(OCCC(=O)NC2=NCCS2)cc1,"inconclusive: 25.1 µM [inhibitor, single point]",–
C=CCc1ccc(OCCn2cccc2C=O)c(OC)c1,active: 0.631 µM,–
CCCCCc1cc(=O)oc2c(C(CCN(CC)CC)c3ccc(OC)cc3)c(OC)cc(OC)c12 (stereo not given),"inconclusive: 22.4 µM [inhibitor, single point]",–
Cc1cc(Cl)ccc1C(=O)C1CCCN(C(=O)CN2CCOC2=O)C1 (stereo not given),–,inactive: 0.0748%
CC(=O)c1ccc(NC(=O)c2ccc([N+](=O)[O-])o2)cc1,active: 6.31 µM,–
CC(=O)Nc1ccc(C(=O)n2nc(C)cc2C)cc1,–,inactive: 5.08%
CCc1nnc(NC(=O)CN2CCN(C3CCCCC3)CC2)s1,–,inactive: -0.164%
COc1ccc(-c2c(NC(=O)c3ccco3)oc3c(C)cccc3c2=O)cc1,–,inactive: -11.5%
CC(CCc1ccccc1)NC(=O)CNC(=O)N1CC(=O)Nc2ccccc21 (stereo not given),–,inactive: 7.07%
COc1ccc(OC)c(S(=O)(=O)Nc2ccc(O)c3ccccc23)c1,active: 10 µM,–
O=C1CN(C(=O)c2cccc(S(=O)(=O)N3CCCC3)c2)c2ccccc2N1,"inconclusive: 11.2 µM [inhibitor, single point]",–
O=C(NC1CCCCCC1)C(=O)NC1CC1,–,inactive: -5.12%
c1ccc(-c2nnc3n2NC(c2ccc4c(c2)OCO4)S3)cc1 (stereo not given),active: 7.94 µM,–
O=C(O)CCCn1c(=S)[nH]c2c(sc3ccc([N+](=O)[O-])cc32)c1=O,–,inactive: -36.8%
COc1ccccc1NC(=O)c1cc2ccc(O)cc2o/c1=N\O,active: 0.891 µM,–
NS(=O)(=O)c1ccc(NC(=S)NCc2cccs2)cc1,–,inactive: 3.17%
COc1ccc(C(=O)NC(=S)Nc2ccc(NC(=O)c3ccco3)cc2)cc1[N+](=O)[O-],"inconclusive: 12.6 µM [inhibitor, single point]",–
N#Cc1ccc(-n2c(-c3ccccc3)nnc2-c2ccccc2)cc1C#N,"inconclusive: 0.005 µM [activator, full curve, poor fit]",–
COCn1c(COc2ccc3ccccc3c2)nc2ccccc21,"inconclusive: 35.5 µM [inhibitor, single point]",–
O=C(O)c1cccc(S(=O)(=O)Nc2ccc3c(c2)CCC3)c1,"inconclusive: 12.6 µM [inhibitor, single point]",–
COC(=O)[C@@H]1C[C@@H]2CC[C@@H](O)C[C@@H]2N1Cc1ccc(N2CCOCC2)cc1,–,inactive: -7.81%
COC(=O)CCCC1=CC2=C(c3ccccc3)C(=O)C(C)(OC(=O)C3CCCC3)C(=O)C2=CN1CCN1CCOCC1 (stereo not given),–,inactive: -2.33%
COCCCNc1ncnc2ccc(C)cc12,"inconclusive: 31.6 µM [activator, single point]",–

SMILES,Potency,"activity change, negative = inhibition"
O=C1CCC(=O)N1c1ccc(-c2nc3ccccc3s2)cc1,"inconclusive: 7.08 µM [inhibitor, partial curve]",–
Cc1ncoc1C(=O)N1CCCC(C(=O)c2ccc(Oc3ccccc3)cc2)C1 (stereo not given),"inconclusive: 35.5 µM [inhibitor, single point]",–
CC1CN(C(=O)CCC(=O)N2CCN(c3cccc(C(F)(F)F)c3)CC2)c2ccccc2O1 (stereo not given),"inconclusive: 20 µM [activator, single point]",–
Cc1ccc(S(=O)(=O)Nc2nc3ccccc3nc2Nc2cccc(S(=O)(=O)N3CCCC3)c2)cc1,"inconclusive: 5.62 µM [activator, full curve]",–
O=C(Cn1cnc2ccccc2c1=O)Nc1cccc(S(=O)(=O)N2CCCCC2)c1,"inconclusive: 4.47 µM [activator, full curve]",–
COc1cccc(N(CC(=O)NC2CCCCC2)C(=O)c2snc(C(N)=O)c2N)c1,"inconclusive: 5.62 µM [activator, partial curve]",–
COc1ccccc1NC(=S)N1CCN(c2cccc(C)c2C)CC1,active: 11.2 µM,–
Cc1nc(NC(C)c2ccccc2)c2c3c(sc2n1)CCC3 (stereo not given),"inconclusive: 35.5 µM [inhibitor, single point]",–
NC(=O)c1nsc(C(=O)N(CC(=O)NC2CCCCC2)Cc2ccc(F)cc2)c1N,–,inactive: 11%
O=C(CCCN1C(=O)/C(=C/c2cccc(Br)c2)SC1=S)Nc1ccccn1,"inconclusive: 7.94 µM [inhibitor, partial curve, poor fit]",–
COC(=O)c1ccc(NC(=S)N2CCN(Cc3ccccc3)CC2)cc1,–,inactive: 3.29%
CCN(CC)CCOC(=O)c1ccc(NC(=O)/C=C/c2cccs2)cc1,"inconclusive: 12.6 µM [activator, single point]",–
CNC(=S)Nc1ccccc1-c1ccccc1,active: 11.2 µM,–
CCc1ccccc1Nc1nn2c(=O)c3ccc(C(=O)NCc4ccccn4)cc3nc2s1,"inconclusive: 14.1 µM [activator, single point]",–
COc1cccc2sc(/N=C/N(C)C)nc12,–,inactive: -20%
CCCC1=NN(C(=O)CCc2ccccc2O)C(O)(C(F)(F)F)C1 (stereo not given),"inconclusive: 17.8 µM [inhibitor, single point]",–
O=[N+]([O-])C(/C=C(\Cl)[N+](=O)[O-])=C1N(Cc2ccc(Cl)nc2)CCN1Cc1ccc(Cl)nc1,"inconclusive: 35.5 µM [inhibitor, single point]",–
CCCC(=O)Nc1sc(Cc2ccccc2)c(C)c1C(N)=O,"inconclusive: 11.2 µM [activator, partial curve]",–
COc1cc(SC#N)ccc1N=Cc1c(C)[nH]n(-c2ccc(C)c(C)c2)c1=O,active: 4.47 µM,–
CCn1nnnc1SCC(=O)Nc1nc2ccc(OC)cc2s1,"inconclusive: 0.794 µM [activator, full curve]",–
Cc1cc(Cl)c(OCCCn2ccnc2)c(Br)c1,active: 17.8 µM,–
CCC(C)n1cnc2c(c1=O)c1nc3ccccc3nc1n2Cc1ccccc1OC (stereo not given),–,inactive: 5.9%
COc1cc(OC)cc(-c2nnc(Nc3nc4c(F)cccc4s3)o2)c1,active: 0.708 µM,–
O=C(Nc1ccon1)c1sc2cc(Cl)ccc2c1Cl,"inconclusive: 7.94 µM [inhibitor, partial curve]",–
CCOc1ccc(NC(=O)c2cc(SC)ccc2Cl)cc1,"inconclusive: 20 µM [activator, partial curve]",–
